Measured values taken from paper PMC10042735.
Substitutions are numbered along the chain they refer to. Numbers in names are those of the source. Results are given in words; binding and its absence hold for the method and conditions named. In cells and extracts the contact can be indirect. Some entries that bind do so weakly or less than the wild type. For some assays here: Sequences can lack the tags named with a protein. Blank lines part the entries; values can stand above or below the binder they belong to.

What was measured:
[1] = molecular target: T1, KAT8, exogenous (tag not told in the text shown) (UniProt Q9H7Z6); assay: co-IP; HEK293T cells transiently cotransfected with the indicated constructs and analyzed by immunoprecipitation
T1 sequence: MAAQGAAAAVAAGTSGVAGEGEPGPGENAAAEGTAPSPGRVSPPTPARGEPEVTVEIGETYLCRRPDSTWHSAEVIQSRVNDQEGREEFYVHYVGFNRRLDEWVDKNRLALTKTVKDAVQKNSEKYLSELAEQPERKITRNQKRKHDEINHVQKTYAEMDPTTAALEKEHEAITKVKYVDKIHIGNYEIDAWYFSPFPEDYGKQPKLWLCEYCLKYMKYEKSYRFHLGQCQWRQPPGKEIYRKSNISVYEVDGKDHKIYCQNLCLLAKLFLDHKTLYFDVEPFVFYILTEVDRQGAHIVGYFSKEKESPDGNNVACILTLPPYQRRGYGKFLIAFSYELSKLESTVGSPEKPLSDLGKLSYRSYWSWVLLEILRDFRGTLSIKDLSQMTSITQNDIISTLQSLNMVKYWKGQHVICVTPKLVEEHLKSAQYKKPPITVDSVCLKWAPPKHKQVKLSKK

[2] = molecular target: T1, KAT8, exogenous (tag not told in the text shown); assay: co-IP; HEK293T cells transfected with the indicated constructs for 24 h; lysates precipitated with streptavidin or anti-MYC beads, blot
[3] = molecular target: T2, IRF1, exogenous (tag not told in the text shown), P10914; assay: co-IP; HEK293T cells transiently cotransfected with the indicated constructs and analyzed by immunoprecipitation; conditions: remark: other sources report otherwise
T2 chain: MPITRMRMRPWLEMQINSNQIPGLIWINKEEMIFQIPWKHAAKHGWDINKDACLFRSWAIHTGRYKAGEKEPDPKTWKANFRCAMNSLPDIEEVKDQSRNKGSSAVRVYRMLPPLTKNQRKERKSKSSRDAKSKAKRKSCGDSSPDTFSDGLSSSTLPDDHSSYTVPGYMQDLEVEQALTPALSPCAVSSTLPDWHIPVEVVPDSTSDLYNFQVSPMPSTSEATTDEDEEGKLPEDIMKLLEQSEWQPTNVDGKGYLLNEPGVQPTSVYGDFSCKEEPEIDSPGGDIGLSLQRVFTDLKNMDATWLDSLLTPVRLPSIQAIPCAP

[4] = molecular target: T3, endogenous KAT8 (human (endogenous in A375 and 143B)) (UniProt Q9H7Z6); assay: co-IP; endogenous proteins in A375 cells treated with 100 U/ml IFNγ for 6 h
T3 sequence: T1 sequence

B1: IRF1 K78R mutant, exogenous (tag not told in the text shown) (protein, UniProt P10914 1-325)
chain: T2 chain with K78R
binding [1]: binds

B2: IRF1, exogenous (tag not told in the text shown) (protein, UniProt P10914 1-325)
chain: T2 chain
binding [2]: binds
binding [1]: binds

Further lines, results first:

binding [3]: binds
B3: IRF1, exogenous (tag not told in the text shown), P10914 1-325 (protein)
chain: T2 chain

binding [4]: binds
B4: endogenous IRF1 (protein, UniProt P10914 1-325)
chain: T2 chain
